In PMC12040169 (PLOS Biology, 2025):
Some of the results follow.

Tested on: T1, CTL2-GFP (C. trachomatis L2/434/Bu, GFP-expressing)
T1 construct: L2/434/Bu, GFP-expressing
Parameters: species or system HeLa; Intracellular C. trachomatis growth in HeLa cells, bulk GFP fluorescence relative to DMSO
Conditions: bulk GFP, single well; 28.5 h, 10 µM; inhibitor

First: CSc1nc(NC(=O)c2cc(-c3ccccc3)oc2C)cc(N2CCNCC2)n1 [CBK050364T]
Second: CCOC(=O)c1[nH]c2ccccc2c1NC(=O)c1ccc(Br)cc1Cl [CBK160147]
The “% of control remaining” value of the first is higher: 119.546% for the first, 110.673% for the second.

Compared with `CSc1ccccc1C(=O)Nc1nccs1` [CBK288225], `O=S(=O)(Nc1cccc2cccnc12)c1cccs1` [CBK043904] is higher in “% of control remaining” value: 125.219% for the first, 144.997% for the second.

First: Cc1ccc(C)c(C(=O)C2=C(O)C(=O)N(CCN(C)C)C2c2ccc(O)cc2)c1 (stereo not drawn) [CBK265740]
Second: CCN1C(=O)c2[nH]nc(-c3ccccc3O)c2C1c1cccc(O)c1 (stereo not drawn) [CBK288159]
The “% of control remaining” value of the first is higher: 150.511% for the first, 106.577% for the second.

Going from `CC(CN1CCOCC1)NS(=O)(=O)c1cccc(C(=O)N2CCCC2)c1` (stereo not drawn) [CBK307053] to `Cc1noc(C)c1S(=O)(=O)NCC(=O)N1CCOCC1` [CBK034476], the “% of control remaining” value falls from 118.343% to 111.981%.

Going from `O=C(O)c1ccc(/C=N/NC(=O)c2ccco2)cc1` [CBK263569] to `O=C(O)CCNC(=O)/C(=C/c1ccc(Cl)cc1)NC(=O)c1ccccc1` [CBK300484], the “% of control remaining” value rises from 100% to 148.297%.

Compared with `CCn1c(SCc2cc(Cl)c3c(c2)OCCO3)nnc1-c1ccc(OC)cc1` [CBK297086], `CCOc1ccc(-c2nc(CSc3n[nH]c(=O)n3CCc3ccccc3)cs2)cc1` [CBK296735] is higher in “% of control remaining” value: 111.698% for the first, 134.739% for the second.

Compared with `CCOC(=O)C1CCCN(CCC(=O)Nc2cc(C)cc(C)c2)C1` (stereo not drawn) [CBK264284], `COC(=O)c1ccc(NC(=O)CN2CCC(C(N)=O)(N3CCCCC3)CC2)cc1` [CBK268275] is lower in “% of control remaining” value: 118.997% for the first, 111.217% for the second.

Compared with `O=C1NNC=Cc2c1cnc1nc(C(F)(F)F)nn21` [CBK288156], `CC(C)C(=O)Nc1cc2cccnc2nc1-c1cccc(C(F)(F)F)c1` [CBK073657] is lower in “% of control remaining” value: 139.029% for the first, 115.61% for the second.

First: O=C(NC1CCCN(c2ncccn2)C1)c1ccc(-c2ccc(F)cc2)s1 (stereo not drawn) [CBK298337]
Second: O=C(CC(NC1CCCC1)C(=O)O)Nc1ccc(F)cc1 (stereo not drawn) [CBK266976]
The “% of control remaining” value of the first is lower: 147.442% for the first, 206.95% for the second.

First: CNc1nc(Cn2ncc(N3CCCN(C)CC3)cc2=O)cs1 [CBK307446]
Second: c1ccc(Cc2csc(C3CN4CCCC4CO3)n2)cc1 (stereo not drawn) [CBK304202]
The “% of control remaining” value of the first is higher: 136.146% for the first, 121.661% for the second.

First: Cc1nc2c(c(=O)[nH]1)CCN(Cc1c(C)oc3ccccc13)C2 [CBK283994]
Second: Cc1cc(OCC(=O)Nc2ccccc2CO)cc(C)c1Br [CBK265094]
The “% of control remaining” value of the first is higher: 117.16% for the first, 100% for the second.

Compared with `CSc1ncc(Cl)c(C(=O)Nc2sc3c(c2C(=O)NC2CCS(=O)(=O)C2)CCC(C)C3)n1` (stereo not drawn) [CBK268886], `COC(=O)c1cc(NS(=O)(=O)c2cc(Cl)ccc2Cl)cc(C(=O)OC)c1` [CBK077853] is lower in “% of control remaining” value: 156.602% for the first, 109.994% for the second.

Going from `O=C(CCn1c(C(F)(F)F)cc2cccnc21)NCc1ccncc1` [CBK284841] to `CNC(=S)N1CCN(c2nccnc2NS(=O)(=O)Cc2ccccc2)CC1` [CBK049044], the “% of control remaining” value rises from 99.8925% to 108.593%.

First: Cc1cc(CN(C)Cc2cnn(Cc3ccccc3)c2C)n[nH]1 [CBK283017]
Second: COc1cc(CNc2ccc(N3CCCCC3)cc2)ccc1OCc1ccccc1F [CBK074472]
The “% of control remaining” value of the first is higher: 119.946% for the first, 87.3598% for the second.

Compared with `COc1ccc(-c2ccc3c(c2)COC2(CCCNC2)O3)c(OC)c1` (stereo not drawn) [CBK105316], `O=C(Nc1cccc(Cl)c1)c1cc2cc(O)ccc2cc1O` [CBK016894] is higher in “% of control remaining” value: 58.0421% for the first, 120.607% for the second.

Going from `CCc1cc(Br)ccc1S(=O)(=O)NCCCC(=O)OC` [CBK044788] to `CC(C)(C)NS(=O)(=O)c1ccc(CCC(=O)Nc2ccc(F)c(Cl)c2)cc1` [CBK266974], the “% of control remaining” value falls from 143.849% to 135.824%.

Going from `O=C(Cn1ccc([N+](=O)[O-])n1)NCc1ccco1` [CBK268999] to `Cc1cc([N+](=O)[O-])ccc1-c1ccc(C(=O)Nc2ccc(O)c(-c3nc4ccccc4s3)c2)o1` [CBK263421], the “% of control remaining” value rises from 119.294% to 124.82%.

First: Cc1nn(CC(=O)N(C)C2CCCCC2)c(=O)c2cc3occc3n12 [CBK283653]
Second: COc1ccc(CN2CCOC(C(=O)O)C2)cc1Cn1cncn1 (stereo not drawn) [CBK306919]
The “% of control remaining” value of the first is lower: 120.351% for the first, 120.654% for the second.

Going from `Cc1nc(N)nc(NCC(O)CN(C)C)c1Cl` (stereo not drawn) [CBK306963] to `CNC(=S)N/N=C/c1c(C)cccc1Cl` [CBK021253], the “% of control remaining” value falls from 118.274% to 110.287%.

In the case of `O=C(O)c1ccc(/C=N/c2ccc(S(=O)(=O)c3ccc(/N=C/c4ccc(C(=O)O)cc4)cc3)cc2)cc1` [CBK262038], the “% of control remaining” value is reported as 117.517%.
